Results on one compound are retold here after patent US10293023B2, “Method of altering vascular permeability and uses thereof” (CHILDREN'S MEDICAL CENTER CORPORATION, priority 2013, dated 2019).

For the data set, the system named is collagen. The experiment in a line: Hydroxyproline in lung tissue or serum (Hydroxyproline assay kit). The format is in vivo, mice.

`N#CCCN` [BAPN, beta-aminopropionitrile]: under “2 week treatment, measure of collagen present in tissue”, the lung hydroxyproline levels entry is listed as “did not significantly alter”. The “hydroxyproline levels in serum” value (p>0.05, measure of collagen turnover) is “no change”. For the same compound, where the note is “treated mice”, the “collagen protein levels or degradation (measured by quantitating hydroxproline levels)” value is on record as “could not detect any change”.
